From patent US20180339024A1, “PEPTIDES WITH ANTI-ANGIOGENIC, ANTI-LYMPHANGIOGENIC, AND ANTI-EDEMIC PROPERTIES AND NANOPARTICLE FORMULATIONS” (Asclepix Therapeutics, LLC, priority 2015, published 2018)
No constants are given. Whether binding was seen depends on the method and setting. Some entries that bind do so weakly or less than the wild type.

By UniProt entry, the sequences of proteins in these tests, tags left out. Where a name states a change or a piece, a line headed by the entry shows the natural chain unless it says otherwise.
UniProt P08648: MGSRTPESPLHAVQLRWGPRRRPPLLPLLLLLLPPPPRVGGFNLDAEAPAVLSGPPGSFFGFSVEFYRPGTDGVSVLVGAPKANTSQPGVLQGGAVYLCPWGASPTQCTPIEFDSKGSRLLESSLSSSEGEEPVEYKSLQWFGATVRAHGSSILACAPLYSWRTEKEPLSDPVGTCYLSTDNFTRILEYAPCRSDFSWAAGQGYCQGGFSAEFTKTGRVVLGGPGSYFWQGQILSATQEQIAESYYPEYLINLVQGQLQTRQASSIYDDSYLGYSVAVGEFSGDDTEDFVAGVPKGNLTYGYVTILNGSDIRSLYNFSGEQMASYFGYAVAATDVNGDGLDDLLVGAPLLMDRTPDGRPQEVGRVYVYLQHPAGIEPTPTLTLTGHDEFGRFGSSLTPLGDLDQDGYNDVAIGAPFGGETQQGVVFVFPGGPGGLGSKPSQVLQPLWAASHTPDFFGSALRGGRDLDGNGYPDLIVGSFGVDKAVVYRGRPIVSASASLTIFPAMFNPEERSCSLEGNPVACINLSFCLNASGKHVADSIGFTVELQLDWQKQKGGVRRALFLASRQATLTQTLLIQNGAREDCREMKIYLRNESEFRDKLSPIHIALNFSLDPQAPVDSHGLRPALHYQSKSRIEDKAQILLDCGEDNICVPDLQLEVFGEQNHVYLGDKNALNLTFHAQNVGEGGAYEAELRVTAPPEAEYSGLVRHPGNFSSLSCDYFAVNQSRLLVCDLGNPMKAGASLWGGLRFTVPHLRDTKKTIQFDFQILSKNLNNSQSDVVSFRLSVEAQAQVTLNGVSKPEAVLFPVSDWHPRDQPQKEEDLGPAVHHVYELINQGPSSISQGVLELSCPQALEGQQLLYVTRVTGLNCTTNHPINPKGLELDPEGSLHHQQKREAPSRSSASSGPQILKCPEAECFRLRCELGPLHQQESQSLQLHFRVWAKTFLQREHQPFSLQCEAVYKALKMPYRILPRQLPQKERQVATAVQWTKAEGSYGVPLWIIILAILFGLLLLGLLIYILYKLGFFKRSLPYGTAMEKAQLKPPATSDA
UniProt P06756: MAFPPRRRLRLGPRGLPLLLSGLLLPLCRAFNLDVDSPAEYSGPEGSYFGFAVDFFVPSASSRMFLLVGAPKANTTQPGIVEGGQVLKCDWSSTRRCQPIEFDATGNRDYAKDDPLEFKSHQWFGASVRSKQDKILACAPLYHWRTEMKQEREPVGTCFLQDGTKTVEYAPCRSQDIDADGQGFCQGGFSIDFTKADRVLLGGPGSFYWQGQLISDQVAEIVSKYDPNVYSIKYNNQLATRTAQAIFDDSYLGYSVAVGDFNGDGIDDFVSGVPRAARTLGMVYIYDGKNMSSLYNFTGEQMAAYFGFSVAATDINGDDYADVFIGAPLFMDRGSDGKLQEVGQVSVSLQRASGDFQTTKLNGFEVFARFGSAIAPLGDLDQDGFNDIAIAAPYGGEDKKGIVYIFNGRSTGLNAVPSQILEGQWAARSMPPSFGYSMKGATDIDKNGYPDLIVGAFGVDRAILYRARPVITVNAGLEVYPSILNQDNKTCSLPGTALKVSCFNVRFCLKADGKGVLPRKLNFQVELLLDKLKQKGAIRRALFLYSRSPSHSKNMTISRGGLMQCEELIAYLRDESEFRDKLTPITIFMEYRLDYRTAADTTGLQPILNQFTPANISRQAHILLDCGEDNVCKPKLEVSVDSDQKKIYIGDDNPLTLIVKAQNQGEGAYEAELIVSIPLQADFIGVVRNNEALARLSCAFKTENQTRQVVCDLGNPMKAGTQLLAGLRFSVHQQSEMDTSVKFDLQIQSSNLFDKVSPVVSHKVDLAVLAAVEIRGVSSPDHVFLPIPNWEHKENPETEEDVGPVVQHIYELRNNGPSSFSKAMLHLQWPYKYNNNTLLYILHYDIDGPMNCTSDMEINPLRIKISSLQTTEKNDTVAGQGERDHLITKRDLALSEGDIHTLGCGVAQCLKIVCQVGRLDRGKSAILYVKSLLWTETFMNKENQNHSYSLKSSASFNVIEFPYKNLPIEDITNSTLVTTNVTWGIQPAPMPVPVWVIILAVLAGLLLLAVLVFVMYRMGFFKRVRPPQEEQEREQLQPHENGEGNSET

Columns and labels:
integrin α5β1 = integrin α5β1 (UniProt P08648); assay: target identification; method not described
integrin αVβ3 = integrin αVβ3 (UniProt P06756); assay: target identification; method not described

binding (integrin α5β1): binds
binding (integrin αVβ3): binds
Binder: LRRFSTAPFAFIDINDVINF (amine at the N-terminus and an amide at the C-terminus) [P07]
